Measured values taken from patent US20210371524A1 (VOR BIOPHARMA, published 2021).
Residue numbers refer to the chain shown, from its start. These are yes or no findings as the source states them, for the method shown. Binding can be weak; no strength is given. One block for each binder: values may come before it.

Experiments:
[1] = molecular target: cynomolgus CD45 on cyno PBMC (cynomolgus); experiment: flow cytometry, 24 h PBMC binding
[2] = molecular target: cynomolgus CD45 RABC (cynomolgus); experiment: statement in the epitope mapping example
[3] = molecular target: cynomolgus CD45 RABC (cynomolgus); experiment: Octet binding experiments
human CD45RO (human) = experiment: Octet binding experiments

B1: AbA chimera (chimeric Antibody A, human IgG1) (antibody, V domains shown)
VH: EVQLVESGGDRVQPGRSLTLSCVTSGFTFNNYWMTWIRQVPGKGLEWVASISSSGGSIYYPDSVKGRFTISRDNAKNTLYLQMNSLRSEDTATYYCARDERWAGAMDAWGQGTSVTVSS
VL: DIQMTQSPPVLSASVGDRVTLSCKASQNINKNLDWYQQKHGEAPKLLIYETNNLQTGIPSRFSGSGSGTDYTLTISSLQPEDVATYYCYQHNSRFTFGSGTKLEIK
notes: also called chimeric AbA
binding [1]: binds | binding [2]: binds

B5: AbC chimera (chimeric Antibody C, human IgG1) (antibody, V domains shown)
VH: EVQLVESGGDLVQPGRSLKLSCVASGFTFNNYWMTWIRQVPGKGLEWVASISSSGGSIYYPDSVKDRFTISRDNAKNTLFLQMNSLRSEDTATYYCARLYYYSGGGDAWGQGTSVTVSS
VL: DIQMTQSPSFLSASVGDRVTIICKASQDINKYLDWYQQKLGEAPKLLIYNTNNLHTGIPSRFSGSGSGTDYTLTISSLQPEDVATYFCLQHISRWTFGGGTKLELK
notes: also called chimeric AbC
binding [1]: binds

B6: AbB chimera (chimeric Antibody B, human IgG1) (antibody, V domains shown)
VH: B5 VH with V23I, N30T, Y32F, P41S, F80Y, A97V, R98K, Y100H
VL: B5 VL with I22N, D28N, L40H, Y49H, N50Y, I92S
notes: also called chimeric AbB
binding [1]: binds

Continued, values first:

binding [3]: binds
B2: AbA (rat anti-human CD45 monoclonal clone, before chimerisation) (antibody, V domains shown)
VH: B1 VH
VL: B1 VL

binding [3]: binds | binding (human CD45RO (human)): binds
B3: AbB (rat anti-human CD45 monoclonal clone, before chimerisation) (antibody, V domains shown)
VH: B5 VH with V23I, N30T, Y32F, P41S, F80Y, A97V, R98K, Y100H
VL: B5 VL with I22N, D28N, L40H, Y49H, N50Y, I92S

binding [3]: binds | binding (human CD45RO (human)): binds
B4: AbC (rat anti-human CD45 monoclonal clone, before chimerisation) (antibody, V domains shown)
VH: B5 VH
VL: B5 VL
